From paper PMC5566117
No constants are given. Whether binding was seen depends on the method and setting. Binding can be weak; no strength is given. Sequences can lack the tags named with a protein.

Molecular target: T1, GST-tagged recombinant Pld6 lacking the mitochondria localization sequence (GST-Pld6ΔMLS) (mouse) (UniProt Q5SWZ9)
T1 sequence: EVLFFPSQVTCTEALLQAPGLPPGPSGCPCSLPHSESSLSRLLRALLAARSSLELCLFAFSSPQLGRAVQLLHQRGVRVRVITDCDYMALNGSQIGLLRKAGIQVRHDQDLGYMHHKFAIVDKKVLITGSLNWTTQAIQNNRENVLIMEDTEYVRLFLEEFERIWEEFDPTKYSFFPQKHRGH
Assay: pull-down; in vitro GST pull-down: purified GST-Pld6ΔMLS and His-MBP-Gykl1ΔC29 mixed at 4 °C for 12 h, Glutathione Sepharose 4B 30 min, washed with 50 mM Tris-HCl pH 8.0, 300 mM NaCl; SDS-PAGE, Coomassie blue; both purified

Substance: MBP-tagged recombinant Gykl1 lacking the C-terminal 29 amino acids (MBP-Gykl1ΔC29) (from UniProt Q8C635) (domain or fragment)
- binding: binds
